Record: PubChem BioAssay AID1259308 (NCATS, 2017)

Screen: 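Genes whose loss raises luciferase production in HEK293 cells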 (primary screen)
Cell system: human HEK293 embryonic kidney cells stably expressing firefly luciferase (HEK-CMV-Luc2-Hygro)
Reagent: single siRNA against human genes, 0.8 pmol siRNA per well
Timing: 72 h
Measurement: 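Luciferase light (ONE-Glo) measured on one replicate plate set and viability (CellTiter-Glo) on the other, scaled to a negative control siRNA, with robust z-scores and luciferase per cell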
Direction: total luciferase, z-score and total luciferase, % of control: higher = more reporter protein produced
Call rule: 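An siRNA counts as active if its total luciferase robust z-score exceeds 3; genes with two or more such siRNAs out of three were retested with fresh siRNAs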
Calls: active = raised luciferase; inactive = no rise
In all, the deposit lists about 59,000 reagents; shown is a part drawn at random. About 1,510 of all reagents (2.6%) were called active. 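Calls use total luciferase alone and ignore viability, so some active siRNAs may act by altering cell number.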 Entries without a mark were called inactive. Reagents against one gene are numbered here. Not all columns of the deposit are shown.

Against ATP6V1E1 (ATPase H+ transporting V1 subunit E1) #1 the deposit lists total luciferase, z-score -1.1; total luciferase, % of control 60.
Depletion of ATP6V1E1 (ATPase H+ transporting V1 subunit E1) #2 came out at: total luciferase, z-score -0.938; total luciferase, % of control 63.2.
Depletion of ATP6V1E1 (ATPase H+ transporting V1 subunit E1) #3 resulted in: total luciferase, z-score -1.94; total luciferase, % of control 43.3.
MPV17L2 (MPV17 mitochondrial inner membrane protein like 2) #1 showed total luciferase, z-score -0.779; total luciferase, % of control 66.4.
With knock-down of MPV17L2 (MPV17 mitochondrial inner membrane protein like 2) #2 the results were total luciferase, z-score 0.0103; total luciferase, % of control 82.1.
Knock-down of MPV17L2 (MPV17 mitochondrial inner membrane protein like 2) #3 gave: total luciferase, z-score -0.316; total luciferase, % of control 75.6.
After knock-down of KRT24 (keratin 24) #1 the results were total luciferase, z-score -0.446; total luciferase, % of control 73.
Silencing of KRT24 (keratin 24) #2 gave: total luciferase, z-score 2.19; total luciferase, % of control 125.
KRT24 (keratin 24) #3 showed total luciferase, z-score 0.59; total luciferase, % of control 93.6.
FAM86B1 #1 scored total luciferase, z-score 1.09; total luciferase, % of control 104.
Silencing of FAM86B1 #2 resulted in: total luciferase, z-score -0.171; total luciferase, % of control 78.5.
With knock-down of FAM86B1 #3 the results were total luciferase, z-score 2.09; total luciferase, % of control 123.
Knock-down of UHRF2 (ubiquitin like with PHD and ring finger domains 2) #1 gave: total luciferase, z-score -0.198; total luciferase, % of control 77.9.
After knock-down of UHRF2 (ubiquitin like with PHD and ring finger domains 2) #2, the record shows total luciferase, z-score -0.643; total luciferase, % of control 69.1.
UHRF2 (ubiquitin like with PHD and ring finger domains 2) #3 scored total luciferase, z-score -1.14; total luciferase, % of control 59.1.
Depletion of THAP9 (THAP domain containing 9) #1 gave: total luciferase, z-score -0.484; total luciferase, % of control 72.3.
Against THAP9 (THAP domain containing 9) #2, the values are total luciferase, z-score 1.97; total luciferase, % of control 121.
THAP9 (THAP domain containing 9) #3 gave total luciferase, z-score -0.913; total luciferase, % of control 63.7.
With knock-down of CST7 (cystatin F) #1, the record shows total luciferase, z-score 0.0106; total luciferase, % of control 82.1.
CST7 (cystatin F) #2 showed total luciferase, z-score -0.123; total luciferase, % of control 79.4.
With knock-down of CST7 (cystatin F) #3, the record shows total luciferase, z-score 0.818; total luciferase, % of control 98.2.
Knock-down of SOX1 (SRY-box transcription factor 1) #1 gave: total luciferase, z-score -0.116; total luciferase, % of control 79.6.
Silencing of SOX1 (SRY-box transcription factor 1) #2 resulted in: total luciferase, z-score -0.479; total luciferase, % of control 72.4.
For SOX1 (SRY-box transcription factor 1) #3, the values are total luciferase, z-score 1.4; total luciferase, % of control 110.
FAM217A (family with sequence similarity 217 member A) #1 showed total luciferase, z-score -0.314; total luciferase, % of control 75.6.
With knock-down of FAM217A (family with sequence similarity 217 member A) #2 the results were total luciferase, z-score -1.66; total luciferase, % of control 48.9.
With knock-down of FAM217A (family with sequence similarity 217 member A) #3, the screen gave total luciferase, z-score 0.792; total luciferase, % of control 97.6.
ZNF391 (zinc finger protein 391) #1 scored total luciferase, z-score 4.71 (active); total luciferase, % of control 176.
After knock-down of ZNF391 (zinc finger protein 391) #2 the results were total luciferase, z-score 0.491; total luciferase, % of control 91.6.
For ZNF391 (zinc finger protein 391) #3 the deposit lists total luciferase, z-score -0.45; total luciferase, % of control 72.9.
Against SLCO2B1 #1, the values are total luciferase, z-score 0.0475; total luciferase, % of control 82.8.
SLCO2B1 #2 scored total luciferase, z-score -1.18; total luciferase, % of control 58.4.
Against SLCO2B1 #3, the values are total luciferase, z-score 0.365; total luciferase, % of control 89.2.
With knock-down of MPHOSPH9 (M-phase phosphoprotein 9) #1 the results were total luciferase, z-score -0.189; total luciferase, % of control 78.1.
Against MPHOSPH9 (M-phase phosphoprotein 9) #2 the deposit lists total luciferase, z-score 0.503; total luciferase, % of control 91.9.
For MPHOSPH9 (M-phase phosphoprotein 9) #3, the entry reads total luciferase, z-score -1.19; total luciferase, % of control 58.1.
Against CLDND1 (claudin domain containing 1) #1, the values are total luciferase, z-score -2.31; total luciferase, % of control 36.
CLDND1 (claudin domain containing 1) #2 showed total luciferase, z-score 1.15; total luciferase, % of control 105.
After knock-down of CLDND1 (claudin domain containing 1) #3, the record shows total luciferase, z-score -1.33; total luciferase, % of control 55.5.
With knock-down of EVA1A (eva-1 homolog A, regulator of programmed cell death) #1, the record shows total luciferase, z-score 0.29; total luciferase, % of control 87.6.
With knock-down of EVA1A (eva-1 homolog A, regulator of programmed cell death) #2 the results were total luciferase, z-score 0.684; total luciferase, % of control 95.5.
Depletion of EVA1A (eva-1 homolog A, regulator of programmed cell death) #3 resulted in: total luciferase, z-score -0.562; total luciferase, % of control 70.7.

4 of these entries, set out differently.
gene | reagent | total luciferase, z-score | total luciferase, % of control
MPV17L2 (MPV17 mitochondrial inner membrane protein like 2) | 1 | -0.779 | 66.4
MPV17L2 (MPV17 mitochondrial inner membrane protein like 2) | 2 | 0.0103 | 82.1
MPV17L2 (MPV17 mitochondrial inner membrane protein like 2) | 3 | -0.316 | 75.6
KRT24 (keratin 24) | 1 | -0.446 | 73
